From doi:10.1101/2023.11.29.569239 come the findings set out here.

By UniProt entry, the sequences of proteins in these tests, tags left out. Where a name states a change or a piece, a line headed by the entry shows the natural chain unless it says otherwise.
UniProt O00571: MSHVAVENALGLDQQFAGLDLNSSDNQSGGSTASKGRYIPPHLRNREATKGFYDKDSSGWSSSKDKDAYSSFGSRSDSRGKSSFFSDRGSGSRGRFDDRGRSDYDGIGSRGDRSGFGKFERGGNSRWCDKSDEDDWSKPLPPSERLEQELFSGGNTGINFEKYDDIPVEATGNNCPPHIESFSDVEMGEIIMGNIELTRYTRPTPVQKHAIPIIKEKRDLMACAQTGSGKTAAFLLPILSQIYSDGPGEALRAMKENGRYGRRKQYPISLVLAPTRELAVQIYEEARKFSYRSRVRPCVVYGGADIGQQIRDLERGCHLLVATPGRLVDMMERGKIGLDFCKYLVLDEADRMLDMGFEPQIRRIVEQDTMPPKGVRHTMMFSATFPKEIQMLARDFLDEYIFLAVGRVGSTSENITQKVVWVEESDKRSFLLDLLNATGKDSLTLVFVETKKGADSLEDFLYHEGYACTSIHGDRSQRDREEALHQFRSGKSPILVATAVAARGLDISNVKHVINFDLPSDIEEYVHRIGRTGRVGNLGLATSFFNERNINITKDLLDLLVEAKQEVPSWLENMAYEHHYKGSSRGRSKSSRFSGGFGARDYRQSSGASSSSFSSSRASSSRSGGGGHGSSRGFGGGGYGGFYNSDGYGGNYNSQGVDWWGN
UniProt O15523: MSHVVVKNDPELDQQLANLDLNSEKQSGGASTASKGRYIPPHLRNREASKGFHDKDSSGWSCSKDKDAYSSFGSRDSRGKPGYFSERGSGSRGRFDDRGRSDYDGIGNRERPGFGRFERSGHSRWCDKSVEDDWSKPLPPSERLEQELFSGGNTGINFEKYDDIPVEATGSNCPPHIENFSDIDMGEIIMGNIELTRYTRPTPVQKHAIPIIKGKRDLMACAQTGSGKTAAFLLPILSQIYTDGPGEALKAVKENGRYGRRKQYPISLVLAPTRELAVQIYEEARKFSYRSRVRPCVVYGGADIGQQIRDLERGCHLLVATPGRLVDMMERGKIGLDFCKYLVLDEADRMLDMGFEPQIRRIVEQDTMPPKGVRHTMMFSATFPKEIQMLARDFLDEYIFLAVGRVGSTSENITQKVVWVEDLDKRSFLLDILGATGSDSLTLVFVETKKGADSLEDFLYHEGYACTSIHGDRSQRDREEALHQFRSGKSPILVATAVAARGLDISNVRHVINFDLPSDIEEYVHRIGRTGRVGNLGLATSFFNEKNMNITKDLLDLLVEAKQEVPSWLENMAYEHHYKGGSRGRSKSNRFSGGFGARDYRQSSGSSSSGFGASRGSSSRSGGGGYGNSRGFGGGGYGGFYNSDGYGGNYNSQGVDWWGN

For at least one entry, the source does not settle the construct or the ends of the probe. For some of these results: A weaker result is weaker than the reference pair of the same experiment.

Assay in all cases: EMSA
The target of one data set is MBP-ΔN DDX3X (UniProt O00571). To be noted: 2 mM Mg2+, Kd significantly increased.
In the next data set the target is MBP-ΔC DDX3X (UniProt O00571). To be noted: 2 mM Mg2+, insignificant Kd change.
A further data set concerns the target MBP-ΔN DDX3Y (UniProt O15523). To be noted: 2 mM Mg2+, small, insignificant Kd increase.
For a further data set, the target named is MBP-ΔC DDX3Y (UniProt O15523). The settings on record: 2 mM Mg2+, insignificant Kd change.

Consider “ACCGCUGCCGUCGCUCCG / UUUUUUUUUUUUUUUUUUUUUUUUCGGAGCGACGGCAGCGGU [dsRNA I (18-mer/42-mer)]”, for which the binding result with MBP-ΔN DDX3X is “binds more weakly”; with MBP-ΔC DDX3X, “binds”; with MBP-ΔN DDX3Y it was “binds”; in the data set with MBP-ΔC DDX3Y, “binds”.
